Record: PubChem BioAssay AID1259308 (NCATS, 2017)

Test: 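Genes whose loss raises luciferase production in HEK293 cells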 (primary screen)
System: human HEK293 embryonic kidney cells stably expressing firefly luciferase (HEK-CMV-Luc2-Hygro)
Reagent: single siRNA against human genes, 0.8 pmol siRNA per well
Timing: 72 h
Read-out: 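Luciferase light (ONE-Glo) measured on one replicate plate set and viability (CellTiter-Glo) on the other, scaled to a negative control siRNA, with robust z-scores and luciferase per cell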
Direction: total luciferase, z-score and total luciferase, % of control: higher = more reporter protein produced
Rule for the call: 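Active when the median/MAD z-score for overall luciferase is greater than 3; a gene was taken forward for validation with new siRNAs if at least two of its three siRNAs passed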
Meaning of the calls: active = raised luciferase; inactive = no rise
The deposit covers about 59,000 reagents; this is an unselected part. About 1,510 of them (2.6%) count as active. 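Calls use total luciferase alone and ignore viability, so some active siRNAs may act by altering cell number.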 The numbers tell different reagents against one gene apart. Further read-outs or replicates are left out here. No sequences are given here.

Which result is listed for NEIL3 (nei like DNA glycosylase 3) #1?
total luciferase, z-score: -1.05; total luciferase, % of control: 61.1; Outcome: inactive

Which result is listed for NEIL3 (nei like DNA glycosylase 3) #2?
total luciferase, z-score: 0.0256; total luciferase, % of control: 82.4; Outcome: inactive

How did the screen score NEIL3 (nei like DNA glycosylase 3) #3?
total luciferase, z-score: -0.767; total luciferase, % of control: 66.6; Outcome: inactive

How did the screen score RAB3GAP2 (RAB3 GTPase activating non-catalytic protein subunit 2) #1?
total luciferase, z-score: 0.62; total luciferase, % of control: 94.2; Outcome: inactive

What did the screen give for RAB3GAP2 (RAB3 GTPase activating non-catalytic protein subunit 2) #2?
total luciferase, z-score: 0.219; total luciferase, % of control: 86.3; Outcome: inactive

What is on record for RAB3GAP2 (RAB3 GTPase activating non-catalytic protein subunit 2) #3?
total luciferase, z-score: 1.02; total luciferase, % of control: 102; Outcome: inactive

Which result is listed for MYOT (myotilin) #1?
total luciferase, z-score: -1.25; total luciferase, % of control: 57.1; Outcome: inactive

With MYOT (myotilin) #2, what does the deposit list?
total luciferase, z-score: -2.3; total luciferase, % of control: 36.1; Outcome: inactive

For MYOT (myotilin) #3, how do the results read?
total luciferase, z-score: 0.375; total luciferase, % of control: 89.3; Outcome: inactive

What did the screen give for RRH (retinal pigment epithelium-derived rhodopsin homolog) #1?
total luciferase, z-score: -0.687; total luciferase, % of control: 68.2; Outcome: inactive

For RRH (retinal pigment epithelium-derived rhodopsin homolog) #2, what was measured?
total luciferase, z-score: -0.239; total luciferase, % of control: 77.1; Outcome: inactive

For RRH (retinal pigment epithelium-derived rhodopsin homolog) #3, how do the results read?
total luciferase, z-score: 0.0712; total luciferase, % of control: 83.3; Outcome: inactive

Reprinted from the listing for reference:
MYOT (myotilin) #3: total luciferase, z-score = 0.375; total luciferase, % of control = 89.3; Outcome = inactive
RRH (retinal pigment epithelium-derived rhodopsin homolog) #1: total luciferase, z-score = -0.687; total luciferase, % of control = 68.2; Outcome = inactive
